Measurements taken from paper PMC6302113.

Assays:
[1] = biological target: T1, IL-22 binding protein isoform-1 (IL-22BPi1), C-terminally myc-FLAG-tagged (human) (UniProt Q969J5); assay: co-IP; HEK293 transiently co-transfected with IL-22BPi1 or IL-22BPi2 and FLAG-tagged GRP94 truncation and deletion mutants, lysed after 24 h; Myc agarose to precipitate the IL-22BP isoform; immunoblot with KDEL and mouse or rabbit FLAG antibodies
T1 sequence: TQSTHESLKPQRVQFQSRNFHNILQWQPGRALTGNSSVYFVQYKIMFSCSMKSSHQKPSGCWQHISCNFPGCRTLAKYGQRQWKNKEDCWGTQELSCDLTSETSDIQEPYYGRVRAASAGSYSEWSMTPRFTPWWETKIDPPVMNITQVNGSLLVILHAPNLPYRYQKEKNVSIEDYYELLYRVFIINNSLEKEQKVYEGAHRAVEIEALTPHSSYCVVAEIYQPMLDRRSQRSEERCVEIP

[2] = biological target: T2, IL-22 binding protein isoform-2 (IL-22BPi2), C-terminally myc-FLAG-tagged (human) (UniProt Q969J5); assay: as above
T2 sequence: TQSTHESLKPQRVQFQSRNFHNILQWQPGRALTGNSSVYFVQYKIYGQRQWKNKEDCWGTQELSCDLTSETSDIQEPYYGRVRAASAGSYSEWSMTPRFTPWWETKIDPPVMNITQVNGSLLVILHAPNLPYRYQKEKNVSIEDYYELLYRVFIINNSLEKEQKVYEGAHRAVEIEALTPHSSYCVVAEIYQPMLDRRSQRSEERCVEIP

GRP94 C-terminal domain (CTD) mutant, FLAG-tagged (domain or fragment)
binding [1]: no binding | binding [2]: no binding

GRP94 N-terminal domain (NTD) mutant, FLAG-tagged (domain or fragment)
binding [1]: no binding | binding [2]: no binding

GRP94 middle domain (MD) mutant, FLAG-tagged (domain or fragment)
binding [1]: binds | binding [2]: binds

ΔA-GRP94 mutant, FLAG-tagged (domain or fragment)
binding [1]: binds | binding [2]: binds

Results are given in words; binding and its absence hold for the method and conditions named. Binding seen in cells or lysates may run through a third protein. A result given as binding can be weak or reduced; the word gives no strength. Where a sequence is shown, tags or fusion partners need not be part of it.
